Data: paper PMC12040169 (PLOS Biology, 2025)
This is one part of the list.

Test system: T1, CTL2-GFP (C. trachomatis L2/434/Bu, GFP-expressing)
T1 construct: L2/434/Bu, GFP-expressing
Parameters: species or system HeLa; Intracellular C. trachomatis growth in HeLa cells, bulk GFP fluorescence relative to DMSO
Conditions: bulk GFP, single well; 28.5 h, 10 µM; inhibitor

SMILES	% of control remaining [%]
C=CCOc1c(CNc2cccc(C(=O)O)c2)cccc1OC [CBK074432]	88.9445
CNC(=O)C1(Cc2ccc(-c3ccccc3)cc2)CCN(C(=O)CCc2ccccc2)CC1 [CBK285765]	140.357
O=C(Nc1nnc(-c2ccco2)o1)c1cccc(C(F)(F)F)c1 [CBK287422]	112.834
Cc1ccc(NC(=O)c2cnc3ccccc3n2)c(C)n1 [CBK200218]	95.9451
CCc1nn(CC(=O)NC2CC2)c(=O)c2cc3sccc3n12 [CBK284029]	102.961
COc1ccc(NC(=O)c2cn(C)nc2CC2CCN(CCc3ccccc3)CC2)cc1 [CBK285559]	109.287
O=C1CCC[C@]2(CN(C(=O)C3CC3)C[C@H]2c2ccc(F)c(F)c2)N1 [CBK283364]	81.9749
CC(C)N1CCN(Cc2c(C(F)(F)F)[nH]c3ncccc23)CC1 [CBK285354]	124.087
COCCN1C(=O)/C(=C2/C(=O)N(CC(=O)Nc3ccccc3)c3ccccc32)SC1=S [CBK264489]	100
CCn1cnnc1C1CCN(C(=O)c2ccc(C)c(Cl)c2)CC1 [CBK303997]	143.523
O=C1CC(c2ccccc2)CC(=O)C1=CNCCN1CCOCC1 (stereo not shown) [CBK262522]	105.475
CCN(CC)CC(=O)Nc1ccccc1OC [CBK266213C]	114.683
COc1ccc(S(=O)(=O)N2CCC(C(=O)O)CC2)cc1Cl [CBK267162]	141.346
O=C(c1cccc2[nH]ccc12)N1CCN(CCc2ccccc2)CC1 [CBK200203]	102.763
CC(OC(=O)C1CCCCC1)c1nc2ccccc2[nH]1 (stereo not shown) [CBK111483]	111.361
CCN(CC)CCn1c2ccccc2c2nc(C)sc21 [CBK266628C]	172.457
COc1ccc(S(=O)(=O)N2CCN(C(=S)Nc3ccc(S(N)(=O)=O)cc3)CC2)cc1 [CBK266898]	156.265
CC(C)(C)C(C#N)C(Oc1ccc(Cl)cc1)n1cncn1 (stereo not shown) [CBK023570]	110.436
CN(C(=O)Cn1c(=O)n(C)c2ncccc21)C1CCCCC1 [CBK283791]	168.123
Cc1noc(C)c1NC(=O)c1cccn1C [CBK200304]	120.09
CC1CCCCN1CC(=O)N(C)C(C)COc1ccc(Cl)cc1 (stereo not shown) [CBK023201]	97.1945
OC(CN1CCN(c2cccc(Cl)c2)CC1)Cn1c2ccccc2c2ccccc21 (stereo not shown) [CBK264333]	109.343
O=C(NC[C@H]1CC[C@H](c2nnc(-c3ccsc3)o2)CC1)C1CCC1 [CBK283363]	126.088
CN(C)CCCNC(=O)C1CCN(c2cncc(-c3ccc(O)cc3)n2)CC1 [CBK126929T]	100
Cc1cccn2cc(CC(=O)OCC(=O)NC(C)(C)C)nc12 [CBK304966]	107.936
O=C(CN1CCOCC1)NC1(c2ccccc2)CCCCC1 [CBK059545C]	117.219
CCc1cc(NC[C@@H](O)CO)nc(-c2ccc(F)c(Cl)c2)n1 [CBK132880]	40.7665

SMILES	% of control remaining [%]
Cc1cnn(CCCNC(=S)Nc2ccc(S(N)(=O)=O)cc2)c1 [CBK266957]	154.114
CC(=O)N(c1ccc2oc3c(c2c1)CCCC3)S(=O)(=O)c1ccc(C(=O)O)cc1 [CBK299808]	120.932
CN1CCN(CCOC(=O)N2CCN(c3cccc(C(F)(F)F)c3)CC2)CC1 [CBK115940C]	114.547
Cn1c(=O)[nH]c(=O)c2c1nc(N1CCOCC1)n2CC(O)COc1ccc(I)cc1 (stereo not shown) [CBK262438]	110.907
NC(=O)CSc1nnc(SCc2cccc3ccccc23)s1 [CBK266150]	155.382
CCn1c(=O)n(CC(=O)Nc2ccccc2F)c2cccnc21 [CBK283897]	124.63
CN(C)C(=O)c1ccc(-c2cnc(OCC3CCN(C(=O)OC(C)(C)C)CC3)cn2)cc1F [CBK175076]	119.881
CC(=O)Nc1cccc(NC(=O)c2cc(-c3ccccn3)nc3ccc(Cl)cc23)c1 [CBK267747]	116.349
CC1Cc2cc(-c3cn4ccccc4n3)ccc2N1S(C)(=O)=O (stereo not shown) [CBK285194]	101.694
CCCc1occc1C(=O)N1CCOCC1C(=O)O (stereo not shown) [CBK304151]	114.505
Cc1nnc(Sc2nc3ccccc3nc2C(F)(F)F)s1 [CBK093774]	134.992
Cn1ccnc1C(NC(=O)N1CCCC1)c1ccc(F)c(F)c1 (stereo not shown) [CBK283782]	100.728
COc1cc(C(=O)O)cc2c1NC(c1ccc(C(=O)O)cc1)C1CC=CC21 (stereo not shown) [CBK287018]	138.032
Cc1ccc(-c2nnc(-c3cccc(NC(=O)CSCc4ccc(Cl)cc4)c3)o2)cc1 [CBK266789]	142.866
CC(=O)c1ccc(-c2ccc(C(=O)NCC3COc4ccccc4O3)c(NCc3cccnc3)n2)s1 (stereo not shown) [CBK076608]	160.533
COC(=O)CCc1ccc(S(=O)(=O)N2CCCN(Cc3c[nH]c4ccc(Cl)cc34)CC2)cc1 [CBK063000]	100.704
Clc1cc(N2CCCC2)ncn1 [CBK083597]	118.323
O=C(Cn1ccc(=O)[nH]c1=O)NCc1cccnc1OCC(F)(F)F [CBK304565]	133.887
COc1ccc(C(=O)N2CC[C@H]3NC(=O)N(c4ccc(F)cc4)C(=O)[C@H]32)cc1 [CBK289325]	151.617
O=C(Nc1cc2cccnc2c(Br)n1)Nc1ccc(F)cc1C(F)(F)F [CBK063287]	139.702
CSc1ccc(-n2ncc(-c3ccc(Cl)cc3)n2)cc1 [CBK112782]	102.782
CNC(=O)c1c(NC(=O)c2nc(SCc3ccccc3)ncc2Cl)sc2c1CCCC2 [CBK269087]	148.503
Cc1nn(C)c(C)c1-c1ccnc(NCCC2(O)CCN(C)CC2)n1 [CBK307659]	95.4527
c1cnc(-c2ccoc2)c(NCCCN2CCOCC2)n1 [CBK036631]	100
Cc1ccc(OCC(=O)Nc2ccc3c(c2)C(=O)Nc2ccccc2O3)cc1 [CBK287660]	113.592
CCCCn1c(=O)c(C(=O)Nc2ccccc2S(N)(=O)=O)c(O)c2ccccc21 [CBK262260]	116.074
O=[N+]([O-])c1ccc(S(=O)(=O)Nc2nnc(C3CCCCC3)s2)cc1 [CBK200049]	138.173

Given comma-delimited: 3 of the compounds above.
SMILES,% of control remaining [%]
CC(OC(=O)C1CCCCC1)c1nc2ccccc2[nH]1 (stereo not shown) [CBK111483],111.361
CCn1c(=O)n(CC(=O)Nc2ccccc2F)c2cccnc21 [CBK283897],124.63
CN(C)C(=O)c1ccc(-c2cnc(OCC3CCN(C(=O)OC(C)(C)C)CC3)cn2)cc1F [CBK175076],119.881

Carrying on:

SMILES	% of control remaining [%]
CC(=O)N1CCc2c(c3cccc(Br)c3n2Cc2ccccc2)C1 [CBK024402]	118.637
CN1CCN(C2CC(=O)N(c3ccc(Oc4ccccc4)cc3)C2=O)CC1 (stereo not shown) [CBK265434]	129.849
COc1cccc(C2CC(=O)Nc3n[nH]cc32)c1OC (stereo not shown) [CBK287889]	118.739
CN(C)S(=O)(=O)N1CCN(c2ccc([N+](=O)[O-])c(NCCc3ccccc3)c2)CC1 [CBK266498]	118.2
Cc1cnc(NC(=O)C(C)Oc2ccccc2)s1 (stereo not shown) [CBK288250]	108.746
Clc1cc(Nc2ccc3[nH]ccc3c2)n2nccc2n1 [CBK037009]	123.661
CC(=O)Nc1cccc(NC(=S)Nc2ccc(S(N)(=O)=O)cc2)c1 [CBK267091]	126.754
Cc1cc(C)nc(-n2ncc(C#N)c2NC(=O)c2ccccc2)n1 [CBK288135]	109.328
CCCSc1nc2cc(C(=O)OC)ccc2c(=O)n1CC1CCCO1 (stereo not shown) [CBK306031]	149.258
Cc1cc(CN(C)Cc2cnn(-c3ccc(Cl)cc3)c2)n[nH]1 [CBK281912]	130.825
O=C(COc1ccccc1)NC(=S)Nc1cc(-c2nc3ncccc3o2)ccc1Cl [CBK264380]	100
CN(CCCN1CCC(C(=O)NC(c2cccnc2)c2ccc3c(c2)OCO3)CC1)S(C)(=O)=O (stereo not shown) [CBK148505]	157.948
Cc1nc(NS(=O)(=O)c2cc(Cl)sc2Cl)sc1C(=O)N1CCN(C)CC1 [CBK045818]	115.424
Cc1ccc(C(=O)NCCN2CCOCC2)c(N2CCN(C(=O)c3ccco3)CC2)n1 [CBK076312]	91.2653
Cc1nc(NS(=O)(=O)c2c(C)noc2C)sc1C(=O)N1CCOCC1 [CBK050574]	118.455
CCOc1cccc(-c2cncc(N3CCN(c4ccccn4)CC3)n2)c1 [CBK065985]	125.253
Cc1ccccc1NC(=O)Cc1nnc(SCC(=O)c2ccccc2)n1C [CBK269719]	111.092
CSCCCNC(=O)N1CCN(Cc2ccccc2)CC1 [CBK155623]	110.319
COC(=O)c1c(NC(=S)NCc2cccnc2)sc(C)c1C [CBK267029]	157.813
Cc1ccc([N+](=O)[O-])cc1NC1OC(C(O)CO)C(O)C1O (stereo not shown) [CBK262031]	100
O=C(N/N=C/c1cccc(OC(=O)c2cccc(Br)c2)c1)c1ccncc1 [CBK262249]	97.568
NC(=O)Nn1c(CCC(=O)O)ccc1-c1cccs1 [CBK266019]	201.867
FC(F)(F)c1cccc(NC(=S)Nc2ccc(Cc3ccncc3)cc2)c1 [CBK267251]	114.78
CCn1c2cc(C)sc2c2cnn(CC(=O)NC3CC3)c(=O)c21 [CBK284170]	118.401
Nc1ncc(Br)nc1N[C@@H](CO)c1ccccc1 [CBK074321]	114.784

Grouped by structure: the compounds so far containing a tert-butyl group.
SMILES	% of control remaining [%]
CC(C)(C)C(C#N)C(Oc1ccc(Cl)cc1)n1cncn1 (stereo not shown) [CBK023570]	110.436
Cc1cccn2cc(CC(=O)OCC(=O)NC(C)(C)C)nc12 [CBK304966]	107.936
CN(C)C(=O)c1ccc(-c2cnc(OCC3CCN(C(=O)OC(C)(C)C)CC3)cn2)cc1F [CBK175076]	119.881
